Reference: PubChem BioAssay AID2685 (National Center for Advancing Translational Sciences (NCATS), 2010)
“And” between values parts separate entries of the source, which are not always exact repeats. Equal values may be shown once. This is one part of the list. The main result of the screen is listed elsewhere. These columns were measured beside it and carry no call. Compounds called inactive in the main read-out are mostly missing here. Words in brackets tell the shape of the fitted curve; partial curves, single points and poor fits give uncertain potencies.

Assay: qHTS Assay for Lipid Storage Modulators in Drosophila S3 Cells;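 as to cell number change: cells counted by Cell Tracker Red CMTPX staining in the red channel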
Settings: BODIPY lipid droplet fluorescence, 18-24 h; for cell number change: measured here: cell count max response, cells fed with added oleic acid
Method in brief: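 Drosophila S3 cells got compounds at several concentrations plus oleic acid (400 uM solution). Laser-scanning cytometry with 488 nm excitation read lipid droplets at 500-530 nm and cells at 575-640 nm. Percent activity was relative to 20 uM Triacsin C.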

[1] = measured here: cell number channel AC50, cells fed with added oleic acid
[2] = measured here: lipid fluorescence (Fed channel) AC50, cells fed with added oleic acid

Row | SMILES | cell number change | AC50 [1] | AC50 [2]
1 | COc1ccc(NC(=O)c2cc3c(s2)CCC3)cc1S(=O)(=O)N1CCOCC1 | 63% | 25.9 µM [rising, single point] | 16.4 µM [rising, partial curve]
2 | COc1ccc(CCn2c(=N)c(C(=O)NCC3CCCO3)cc3c(=O)n4ccccc4nc32)cc1 (stereo unspecified) | -0.472% |  | 
3 | O=C1N(C2CCCC2)C[C@@H]2C[C@@H](c3cn[nH]c3-c3ccc(Cl)cc3)N3CCC[C@@]123 | -17.6% |  | 16.4 µM [falling, single point]
4 | COc1ccc(C2=CC(=O)C[C@H](c3ccc(F)cc3)C2)c(F)c1F | -23.9% | 0.164 µM [falling, full curve, poor fit] | 0.651 µM [rising, partial curve]
5 | COc1ccc(NC(=O)Cn2c(C(C)C)nc(C)cc2=O)cc1Cl | -23.8% | 3.66 µM [rising, partial curve] | 25.9 µM [falling, single point]
6 | C(=C\c1ccccc1)/CN1CCN(c2ncnc3c2oc2ccccc23)CC1 | -22.4% |  | 32.6 µM [falling, single point]
7 | COc1ccc(C2=Nn3c(nnc3-c3ccncc3)SC2)cc1 | 1.55% |  | 0.058 µM [rising, full curve]
8 | NCCc1cnc[nH]1 | 10.8% and 6.52% |  | 6.51 µM [falling, full curve, poor fit] and 25.9 µM [rising, single point]
9 | COC(=O)c1ccc(Nc2cc(C)nc(-c3ccccc3O)n2)cc1 |  |  | 0.517 µM [falling, partial curve, poor fit]
10 | CN1CCN(C(=O)c2cc(Cl)ccc2Cl)CC1 | -2.18% |  | 29.1 µM [falling, single point]
11 | Cc1ccc(Cn2c(=N)n(CC(=O)c3ccccc3)c3ccccc32)cc1 | -63.1% | 18.4 µM [falling, single point] | 
12 | Cc1scc(C(=O)NNC(=S)NCc2ccccc2)c1C | -17.7% |  | 9.2 µM [rising, partial curve]
13 | CCC(C(=O)OCC(=O)Nc1c(C)nn(-c2ccccc2)c1C)c1ccccc1 (stereo unspecified) | 8.55% | 0.651 µM [falling, single point] | 0.651 µM [falling, single point]
14 | CCc1ccc(NC(=O)CCNS(=O)(=O)c2cccs2)cc1 | 20.7% |  | 29.1 µM [rising, single point]
15 | C/C=C/C(=O)OCC(=O)Nc1ccc(OC)c(Cl)c1 | -24.8% |  | 
16 | O=C(Cn1nnc(-c2ccccc2)n1)NNC(=O)c1ccccc1 | 24.8% |  | 29.1 µM [rising, single point]
17 | Cc1cc(C)nc(Nc2n[nH]c(-c3ccccc3Cl)n2)n1 | -4.22% |  | 
18 | CCN1CCN(c2ncnc3c2c(-c2ccccc2)cn3-c2ccc(F)cc2)CC1 | -23.3% |  | 16.4 µM [falling, single point]
19 | O=C(O)c1ccc(Nc2ccc([N+](=O)[O-])c3nonc23)cc1 | 8.52% |  | 25.9 µM [rising, single point]
20 | COc1ccc(C(=O)COC(=O)[C@H](C)Nc2ccc(C(F)(F)F)cc2[N+](=O)[O-])c(OC)c1 | -33.8% | 14.6 µM [falling, single point] | 29.1 µM [falling, single point]

Row | SMILES | cell number change | AC50 [1] | AC50 [2]
21 | O=C(CSc1ncn[nH]1)N1c2ccccc2Sc2ccccc21 | -32.9% | 29.1 µM [falling, single point] | 
22 | COc1ccc(CN2CCCC(CO)(Cc3cccc(Cl)c3)C2)cc1OC (stereo unspecified) | 24.4% |  | 0.0651 µM [rising, full curve, poor fit]
23 | O=C1[C@@H]2CSCN2C(=O)CN1CCc1cccc(F)c1 | -55.5% | 29.1 µM [falling, single point] | 0.184 µM [falling, full curve, poor fit]
24 | O=C(COc1ccc(-c2ccccc2)cc1)Nc1cccnc1 | -30.9% | 13 µM [falling, single point] | 6.51 µM [falling, full curve, poor fit]
25 | CCc1ccccc1NC(=O)CNC(=O)c1ccccc1OCc1c(C)noc1C |  |  | 29.1 µM [rising, single point]
26 | CCCN1CCN(CCCNC(=S)Nc2ccc3nc(N4CCN(CC)CC4)cc(C)c3c2)CC1 | 34.4% | 0.58 µM [rising, full curve, poor fit] | 
27 | Cc1ccc(NC(=O)c2sccc2C)cc1[N+](=O)[O-] |  |  | 0.651 µM [falling, partial curve, poor fit]
28 | Nc1ccccc1SCC(=O)Nc1ccc2c(c1)OCO2 | -0.488% |  | 
29 | NC(=O)c1cc(-c2csc(-c3cccnc3)n2)ccc1O |  |  | 6.51 µM [falling, partial curve]
30 | COc1ccc(-c2nnn(CC(=O)N(Cc3cccs3)C(C)C(=O)NC3CCCC3)n2)cc1OC (stereo unspecified) | 11% |  | 0.82 µM [rising, full curve, poor fit]
31 | Cc1cc(C)c(C)c(S(=O)(=O)N2CCN(CC(=O)c3c(N)n(Cc4ccccc4)c(=O)n(C)c3=O)CC2)c1C | -23.2% |  | 16.4 µM [falling, partial curve]
32 | COc1ccc(Cl)cc1NC(=O)c1cccc(NC(=O)CCC(=O)O)c1 | -2.76% | 0.291 µM [falling, full curve, poor fit] | 
33 | CC1(C)CC(=O)C=C(NC2CCCC(O)C2)C1 (stereo unspecified) | -41.8% | 32.6 µM [falling, single point] | 16.4 µM [rising, partial curve]
34 | Cc1cccc(NC(=S)NNc2ncc(C(F)(F)F)cc2Cl)c1 | 2.65% |  | 6.51 µM [rising, single point]
35 | CC(=NCCCNC1CCCCC1)C1=C(O)CC(C)(C)CC1=O | 6.08% |  | 29.1 µM [falling, single point]
36 | O=C(Cc1ccc(-n2c(=O)c3sccc3n(Cc3ccc(F)cc3)c2=O)cc1)NCc1ccco1 | -12.7% |  | 
37 | CN(C)c1ccc(N2C(=O)CC(Sc3ccccc3C(=O)O)C2=O)cc1 (stereo unspecified) | 12.7% |  | 6.51 µM [rising, partial curve]
38 | COc1ccccc1NC(=O)NCC(=O)Nc1c(C)cccc1C |  | 0.116 µM [rising, single point] | 
39 | CCCCOCCCNCc1cccn1CCN1CCOCC1 | 24.1% |  | 5.8 µM [rising, partial curve]
40 | CCN=C1S/C(=C\c2ccc(OC)c(OCC)c2)C(=O)N1CC | 1.23% |  | 6.51 µM [rising, single point]

Row | SMILES | cell number change | AC50 [1] | AC50 [2]
41 | CC1=C(C(=O)OCc2ccccc2)C(c2ccccc2Cl)NC(=O)N1C (stereo unspecified) | -33.2% | 5.17 µM [falling, partial curve, poor fit] | 1.3 µM [falling, partial curve]
42 | O=C(Nc1cccc(Cl)c1)OCc1cnc(Cl)s1 | -18.9% | 0.00517 µM [falling, full curve, poor fit] | 
43 | CCc1cc2cc3c(cc2nc1SCC(=O)N1CCN(C(=O)c2ccco2)CC1)OCO3 | -20.6% |  | 
44 | Cc1cccc(C)c1OCc1cc(C(=O)N2CCN(c3ccc(F)cc3)CC2)no1 | -37.8% | 29.1 µM [falling, single point] | 
45 | CC1(C)Cc2c(C#N)c(SCc3ccccc3)nc(N3CCOCC3)c2CO1 | -3.24% |  | 
46 | O=C(NCCN1C(=O)C2C3C=CC(C3)C2C1=O)Nc1ccccc1 (stereo unspecified) |  |  | 0.58 µM [falling, single point]
47 | Cc1ccc(C(C)C)c(OCC(=O)Nc2ccccc2N2CCN(C)CC2)c1 | -48% | 6.51 µM [falling, partial curve] | 7.31 µM [falling, partial curve]
48 | CCOc1ccc(-c2cc(C(=O)N3CCCC3)c3ccccc3n2)cc1 | 10.4% |  | 
49 | CCOc1ccc(C(=O)NCC(=O)NCC2CCCCC2)cc1OCC | 2.56% | 2.31 µM [rising, partial curve, poor fit] | 29.1 µM [rising, single point]
50 | CCCNC(=O)COc1ccc2c(=O)c(Oc3ccccc3F)coc2c1 | 30.4% | 1.3 µM [rising, partial curve] | 
51 | Cc1cccn2c(=O)c3cc(C(=O)NC4CCCC4)c(=N)n(CCCN4CCOCC4)c3nc12 | 3.91% |  | 29.1 µM [falling, single point]
52 | Cc1cc2c(=O)n(CC(=O)NCC(=O)N3CCN(Cc4ccccc4)CC3)cnc2s1 |  |  | 0.13 µM [falling, full curve]
53 | COC(=O)c1nnn(CC(=O)Nc2cc(Cl)ccc2C)c1C(=O)OC | -1.07% |  | 23.1 µM [rising, single point]
54 | CCOc1ccc(NC(=O)CN2CCc3ccccc3C2)cc1 | -3.3% |  | 1.16 µM [rising, full curve]
55 | O=c1oc2ccccc2nc1/C=C(O)/C=C/c1ccc(F)cc1 | 12.1% |  | 0.58 µM [rising, partial curve, poor fit]
56 | CC(C)C(=O)Nc1cccc(C(=O)NCc2ccc(S(N)(=O)=O)cc2)c1 | -49.4% | 29.1 µM [falling, single point] | 29.1 µM [falling, single point]
57 | COC(=O)c1sc(C(F)(F)F)c(-c2ccccc2)c1S(=O)(=O)N(C)C | -23.9% |  | 16.4 µM [falling, single point]
58 | CC(=NC1CCN(Cc2ccccc2)CC1)c1c(O)[nH]c(=O)[nH]c1=O | -3.15% |  | 3.26 µM [falling, single point]
59 | Cc1cc(C)n2cc(CSc3nnc(N)s3)nc2n1 | 79.8% | 23.1 µM [rising, partial curve] | 14.6 µM [rising, partial curve]
